Values from PubChem BioAssay AID1053208 (Peter MacCallum Cancer Centre, 2014)
Screen: 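Find knock-downs that sensitise mouse osteosarcoma cells to doxorubicin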 (primary screen). Cell system: mouse osteosarcoma cells, early-passage culture from an engineered mouse model of fibroblastic bone tumour. Reagents: siRNA pool against mouse genes, 40 nM. Duration: about 120 h (48 h before drug, then 72 h with drug). Treatment: doxorubicin 100 nM for 72 h, roughly 30-40% inhibitory dose. Read-out: 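Viability read as ATP luminescence after 72 h of 100 nM doxorubicin or none, duplicate wells averaged, scaled to non-targeting siRNA, then expressed as robust z-scores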. Reading the numbers: viability z-score with doxorubicin and doxorubicin viability vs non-targeting: higher = more viable cells under doxorubicin; viability z-score without drug: higher = more viable cells with knock-down alone; z-score of drug to no-drug ratio: higher = less drug sensitisation by knock-down. Active means: 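a pool counts as active when its viability z-score with doxorubicin is -2 or below and its z-score without drug lies between -2 and 2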.
Shown is a random part of about 17,000 reagents tested. 788 of them (4.7%) were called active. 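Calls rest on z-score classes alone; an extra cut-off of viability at most 70% of control was not applied to them.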 No sequences are given here.

The first 2 entries as a preview:
gene knocked down	combined z-score class	viability z-score with doxorubicin	viability z-score without drug	z-score of drug to no-drug ratio	doxorubicin viability vs non-targeting	activity call
Lsg1	low cell count without drug only	-0.9	-2.02	0.67	0.86	inactive
Fabp1	no change with or without drug	0.67	0.17	0.67	1	inactive

The listing, from the first entry:
gene knocked down	combined z-score class	viability z-score with doxorubicin	viability z-score without drug	z-score of drug to no-drug ratio	doxorubicin viability vs non-targeting	activity call
Lsg1	low cell count without drug only	-0.9	-2.02	0.67	0.86	inactive
Fabp1	no change with or without drug	0.67	0.17	0.67	1	inactive
Rps28	low cell count with and without drug	-6.41	-4.89	-4.72	0.37	inactive
Zranb1	no change with or without drug	0.34	0.67	0	0.97	inactive
P2ry10b	no change with or without drug	0	0	0.11	0.94	inactive
Fbxw11	no change with or without drug	1.12	0.51	0.9	1.04	inactive
Degs1	no change with or without drug	1.01	-1.18	2.14	1.03	inactive
Slc25a4	no change with or without drug	-0.56	-1.35	0.45	0.89	inactive
Or5d38	no change with or without drug	0	-1.18	1.01	0.94	inactive
Irag1	no change with or without drug	0.9	-1.35	2.14	1.02	inactive
Mlf2	high cell count without drug only	0.22	2.53	-1.24	0.96	inactive
Tut7	no change with or without drug	1.69	1.52	0.79	1.09	inactive
H2al1m	no change with or without drug	0.22	0.51	0	0.96	inactive
Napsa	low cell count with and without drug	-3.15	-3.2	-1.24	0.66	inactive
Kcnip1	no change with or without drug	-0.34	-0.67	0.22	0.91	inactive
Slfn9	no change with or without drug	0.22	-0.17	0.45	0.96	inactive
Hmgn3	no change with or without drug	-0.56	-1.18	0.34	0.89	inactive
Hspa14	no change with or without drug	0.79	0	0.9	1.01	inactive
Tgfb1	no change with or without drug	-0.67	-0.17	-0.45	0.88	inactive
Ntan1	high cell count with doxorubicin only	2.14	0	2.36	1.13	inactive
